Laboratory results: PubChem BioAssay AID652243 (Drosophila RNAi Screening Center, 2013)
Test: 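Fly genes required for human androgen receptor driven transcription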 (primary screen). Cell system: Drosophila S2R+ cells. Reagent: long dsRNA against Drosophila genes. Time to read-out: 72 h (48 h, then 24 h hormone). Treatment: synthetic androgen R1881 at 10 nM for 24 h. Read-out: 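Per-well raw luminescence of the androgen-driven firefly reporter and of the Renilla control, two replicates each, without normalisation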. Direction: firefly reporter light: higher = more light from androgen-responsive reporter; Renilla control light: higher = more constitutive control signal (cell number, transfection). Hit rule: 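Across duplicate plates, a knock-down whose log firefly/Renilla ratio shifted a set fold down or up from the GFP/LacZ control mean was a hit; the downward cut appears as both 1.5 and 3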. Calls: active = hit: reporter lowered or raised; inactive = no hit.
In all, the deposit lists about 24,000 reagents; shown is a random part of those with a known target gene and a result. Over the whole deposit, 246 (1%) are marked active. 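Plates not normalised; calls are printed but the firefly/Renilla ratio behind them is not deposited; fold cut for lowering reported inconsistently.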 The raw values are shown without normalisation. The record does not give: the amount of reagent.

gene | amplicon | firefly reporter light, replicate 1 | firefly reporter light, replicate 2 | Renilla control light, replicate 1 | Renilla control light, replicate 2 | call
CG14071 | DRSC02374 | 2.54e5 | 2.54e5 | 1.76e6 | 1.35e6 | inactive
Tsp42El (Tetraspanin 42El) | DRSC06186 | 1.04e6 | 7.96e5 | 2.17e6 | 2.83e6 | inactive
Nup153 (Nucleoporin 153kD) | DRSC19904 | 76510 | 1.42e5 | 1.39e6 | 1.82e6 | active
l(2)gd1 (lethal (2) giant discs 1) | DRSC02773 | 1.10e6 | 4.94e5 | 1.94e6 | 1.44e6 | inactive
l(2)gd1 (lethal (2) giant discs 1) | DRSC29178 | 5.28e5 | 8.92e5 | 1.36e6 | 1.49e6 | inactive
CG3436 | DRSC00605 | 7.97e5 | 5.36e5 | 3.34e6 | 1.76e6 | inactive
nuf (nuclear fallout) | DRSC11379 | 1.32e5 | 1.10e5 | 1.29e6 | 1.00e6 | inactive
nuf (nuclear fallout) | DRSC23276 | 1.13e6 | 7.45e5 | 2.92e6 | 2.15e6 | inactive
nuf (nuclear fallout) | DRSC26784 | 3.36e5 | 3.28e5 | 7.01e5 | 7.02e5 | inactive
nuf (nuclear fallout) | DRSC29086 | 3.92e5 | 3.56e5 | 1.14e6 | 1.08e6 | inactive
hyd (hyperplastic discs) | DRSC16971 | 1.05e5 | 1.36e5 | 2.38e6 | 2.76e6 | inactive
hyd (hyperplastic discs) | DRSC28294 | 4.66e5 | 6.63e5 | 9.89e5 | 1.70e6 | inactive
CG32813 | DRSC17948 | 2.68e5 | 3.27e5 | 4.35e6 | 4.57e6 | inactive
CG32813 | DRSC24734 | 5.92e5 | 5.58e5 | 9.60e5 | 1.06e6 | inactive
Arf1 (ADP ribosylation factor 1) | DRSC11606 | 1.07e5 | 1.71e5 | 1.04e6 | 1.11e6 | inactive
Polr1A (RNA polymerase I subunit A) | DRSC07535 | 1.39e6 | 9.89e5 | 3.18e6 | 2.26e6 | inactive
CG32772 | DRSC18406 | 67083 | 1.02e5 | 8.48e5 | 5.87e5 | inactive
CG32772 | DRSC22349 | 6.96e5 | 6.62e5 | 7.24e5 | 6.62e5 | inactive
RpL11 (Ribosomal protein L11) | DRSC07537 | 4.26e5 | 3.43e5 | 5.48e5 | 5.49e5 | inactive
RpL11 (Ribosomal protein L11) | DRSC26217 | 2.09e5 | 2.08e5 | 4.21e5 | 3.08e5 | inactive
CG3819 | DRSC10378 | 1.55e5 | 1.64e5 | 2.01e6 | 2.32e6 | inactive
CG3819 | DRSC27675 | 2.84e5 | 1.68e5 | 7.62e5 | 5.80e5 | inactive
BthD (BthD selenoprotein) | DRSC19395 | 5.03e5 | 6.31e5 | 2.45e6 | 2.69e6 | inactive
BthD (BthD selenoprotein) | DRSC25871 | 4.58e5 | 5.26e5 | 8.29e5 | 7.19e5 | inactive
Cyp6t1 (Cytochrome P450 6t1) | DRSC20564 | 3.85e5 | 3.54e5 | 1.06e6 | 8.99e5 | inactive
Cyp6t1 (Cytochrome P450 6t1) | DRSC24235 | 5.43e5 | 4.83e5 | 4.11e5 | 4.05e5 | inactive
CG30075 | DRSC05484 | 1.10e5 | 1.11e5 | 3.12e5 | 3.57e5 | inactive
Gfat2 (Glutamine:fructose-6-phosphate aminotransferase 2) | DRSC14598 | 56126 | 60058 | 6.12e5 | 5.32e5 | inactive
Gfat2 (Glutamine:fructose-6-phosphate aminotransferase 2) | DRSC26948 | 4.55e5 | 2.78e5 | 9.00e5 | 5.95e5 | inactive
CG3982 | DRSC23139 | 7.08e5 | 8.75e5 | 9.70e5 | 1.34e6 | inactive
CG3982 | DRSC26894 | 3.38e5 | 2.64e5 | 9.12e5 | 9.97e5 | inactive
CG15369 | DRSC18041 | 2.01e5 | 2.77e5 | 1.68e6 | 1.95e6 | inactive
CG12061 | DRSC20715 | 2.31e5 | 2.59e5 | 8.18e5 | 7.99e5 | inactive
CG34457 | DRSC06924 | 63821 | 92871 | 1.01e6 | 1.01e6 | inactive
par-6 | DRSC20359 | 91525 | 94084 | 5.78e5 | 6.93e5 | inactive
par-6 | DRSC29863 | 7.46e5 | 5.99e5 | 1.84e6 | 1.58e6 | inactive
Nle (Notchless) | DRSC00763 | 97749 | 95247 | 6.32e5 | 8.07e5 | inactive
CG17147 | DRSC10249 | 1.78e5 | 1.74e5 | 2.75e6 | 2.33e6 | inactive
CG17147 | DRSC29813 | 2.24e5 | 1.72e5 | 1.14e6 | 1.24e6 | inactive
CG5708 | DRSC02881 | 2.60e5 | 2.08e5 | 1.59e6 | 1.56e6 | inactive
CG30026 | DRSC05276 | 1.04e5 | 1.26e5 | 4.00e5 | 3.38e5 | inactive
CG30026 | DRSC29320 | 7.25e5 | 8.77e5 | 1.20e6 | 1.20e6 | inactive
Trhn (Tryptophan hydroxylase neuronal) | DRSC08621 | 5.23e5 | 5.31e5 | 1.62e6 | 1.86e6 | inactive
Su(var)2-HP2 | DRSC06204 | 1.35e6 | 4.78e5 | 1.81e6 | 6.08e5 | inactive
Su(var)2-HP2 | DRSC29542 | 4.25e5 | 5.79e5 | 5.59e5 | 5.59e5 | inactive
CG17612 | DRSC00505 | 7.44e5 | 1.19e6 | 2.09e6 | 2.26e6 | inactive
CG17612 | DRSC28366 | 4.14e5 | 1.01e6 | 6.17e5 | 9.94e5 | inactive
CG18233 | DRSC10308 | 1.97e5 | 1.78e5 | 1.92e6 | 1.80e6 | inactive
CG17163 | DRSC20901 | 1.35e5 | 1.52e5 | 6.34e5 | 6.47e5 | inactive
can (cannonball) | DRSC10664 | 2.96e5 | 3.31e5 | 1.87e6 | 2.41e6 | inactive
Grl62c (Gustatory receptor-like 62c) | DRSC38623 | 7.61e5 | 6.75e5 | 1.89e6 | 2.50e6 | inactive
CG42733 | DRSC25375 | 8.18e5 | 8.23e5 | 1.02e6 | 1.11e6 | inactive
CG6171 | DRSC15982 | 95036 | 64258 | 6.09e5 | 5.43e5 | inactive
CG16789 | DRSC15155 | 57476 | 70067 | 1.02e6 | 1.23e6 | inactive
Dyrk3 (Dual-specificity tyrosine phosphorylation-regulated kinase 3) | DRSC21055 | 3.50e5 | 4.64e5 | 2.60e6 | 2.65e6 | inactive
Dyrk3 (Dual-specificity tyrosine phosphorylation-regulated kinase 3) | DRSC39281 | – | – | – | – | inactive
Dyrk3 (Dual-specificity tyrosine phosphorylation-regulated kinase 3) | DRSC39285 | – | – | – | – | inactive
Syx13 (Syntaxin 13) | DRSC09836 | 1.29e5 | 1.26e5 | 1.74e6 | 1.45e6 | inactive
CG14657 | DRSC12219 | 1.20e5 | 1.17e5 | 3.31e6 | 3.21e6 | inactive
CG14657 | DRSC12243 | 30424 | 23513 | 3.43e5 | 4.65e5 | inactive
BEAF-32 (Boundary element-associated factor of 32kD) | DRSC05927 | 9.55e5 | 5.07e5 | 2.02e6 | 1.22e6 | inactive
CG10445 | DRSC14247 | 1.19e5 | 97159 | 2.70e6 | 2.25e6 | inactive
Ddr (Discoidin domain receptor) | DRSC02150 | 1.40e5 | 1.32e5 | 1.25e6 | 1.19e6 | inactive
Ddr (Discoidin domain receptor) | DRSC03229 | 4.33e5 | 4.44e5 | 3.00e6 | 3.22e6 | inactive
Ddr (Discoidin domain receptor) | DRSC03230 | 2.76e5 | 2.95e5 | 2.63e6 | 2.95e6 | inactive
Ddr (Discoidin domain receptor) | DRSC22818 | 6.00e5 | 1.10e6 | 6.95e5 | 1.28e6 | inactive
Fst (Frost) | DRSC16491 | 88279 | 86223 | 3.65e5 | 7.27e5 | inactive
Fst (Frost) | DRSC24483 | 6.63e5 | 3.02e5 | 4.92e5 | 4.52e5 | inactive
CG33768 | DRSC11715 | 2.81e5 | 1.88e5 | 1.73e6 | 2.07e6 | inactive
CG10073 | DRSC05961 | 79922 | 69935 | 9.45e5 | 6.44e5 | inactive
RpL21 (Ribosomal protein L21) | DRSC03704 | 1.54e5 | 2.60e5 | 1.04e6 | 1.08e6 | inactive
Sgs8 (Salivary gland secretion 8) | DRSC11282 | 3.06e5 | 2.20e5 | 3.00e6 | 2.84e6 | inactive
CG6959 | DRSC16151 | 1.15e5 | 2.16e5 | 1.99e6 | 2.48e6 | inactive
CG6310 | DRSC10619 | 2.67e5 | 2.65e5 | 3.67e6 | 2.55e6 | inactive

Reagents listed above called active (1):
gene | amplicon | firefly reporter light, replicate 1 | firefly reporter light, replicate 2 | Renilla control light, replicate 1 | Renilla control light, replicate 2 | call
Nup153 (Nucleoporin 153kD) | DRSC19904 | 76510 | 1.42e5 | 1.39e6 | 1.82e6 | active
